Assay results from PubChem BioAssay AID493014 (National Center for Advancing Translational Sciences (NCATS), 2011).
The list shows a part of the results. Further columns of the screen follow, without active or inactive calls. Most of these compounds were active or inconclusive in the main read-out, so they are no random draw. Words in brackets tell the shape of the fitted curve; partial curves, single points and poor fits give uncertain potencies.

Assay: qHTS Assay to Find Inhibitors of Chronic Active B-Cell Receptor Signaling
Details: ABC-DLBCL IkBa-CBG/CBR reporter, luminescence ratio (green luciferase fused to IkBa over red control in TMD8 lymphoma cells), 4 h
Procedure, shortened: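 Doxycycline induced both beetle luciferases in TMD8 lymphoma cells; IKK-driven degradation limits the IkappaBalpha-fused green signal, while red luminescence normalises for cell number and nonspecific effects. Compounds tested up to 46 uM, 4 hrs.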

[1] = measured here: CBR red luminescence, cell number
[2] = measured here: IkBa-CBG green luminescence

CN1CCN(C(=O)/C=C\c2ccc(Cl)cc2)CC1
AC50 [1]: 4.61 µM [rising, full curve, poor fit]

O=C(CSc1nncs1)Nc1ccc2c(c1)OCCO2
AC50 [1]: 11.6 µM [falling, partial curve]

COC(CNC(=O)c1ccc2nc3ccccc3c(=O)n2c1)OC
AC50 [1]: 1.78 µM [falling, full curve, poor fit]

Cc1ccc(-n2c3c(cc(C(=O)Nc4cccc(C)n4)c2=O)C(=O)CCC3)cc1
AC50 [1]: 0.13 µM [falling, full curve, poor fit]

C(=N\Nc1nc2ccccc2s1)/c1ccco1
AC50 [1]: 11.2 µM [falling, partial curve]

CC1CCCCC1NC(=O)Cc1ccc(S(=O)(=O)N2CCOCC2)s1 (configuration not stated)
AC50 [1]: 2.06 µM [rising, partial curve]

Cc1ccc(-c2nc3ccsc3c(=O)o2)cc1
AC50 [1]: 0.708 µM [falling, full curve, poor fit]

COc1ccc(/C(C)=N/NC(=S)Nc2cc(C)ccc2C)cc1
AC50 [1]: 22.4 µM [falling, partial curve, poor fit] | AC50 [2]: 28.2 µM [falling, single point]

C[C@]12c3[nH]c4ccc(Cl)cc4c3CCN1C(=O)[C@@H](CC(=O)NCCC1=CCCCC1)C[C@@H]2C(=O)N1CCCCC1
AC50 [1]: 3.26 µM [rising, partial curve, poor fit]

CCOC(=O)c1ccc(CSC(=N)N)o1
AC50 [1]: 7.94 µM [falling, partial curve]

Cc1cccc(N2C(=O)c3cccc4c(N(C)CCO)ccc(c34)C2=O)c1
AC50 [1]: 22.4 µM [falling, partial curve, poor fit]

C/C(CC(=O)Nc1cccc2c1CCCC2)=N\NC(=O)c1cccc2ccccc12
AC50 [1]: 9.2 µM [falling, partial curve, poor fit]

COc1ccc2cc(CN(CC3CCCO3)S(=O)(=O)c3ccccc3Cl)c(=O)[nH]c2c1 (configuration not stated)
AC50 [1]: 10.3 µM [falling, partial curve]

COc1ccc(C2CC(c3ccccc3)n3nnnc3N2)cc1 (configuration not stated)
AC50 [1]: 7.31 µM [rising, partial curve, poor fit]

CC(C)C(C)NC(=O)COc1ncnc2ccccc12 (configuration not stated)
AC50 [1]: 20.6 µM [falling, single point] | AC50 [2]: 18.4 µM [rising, partial curve, poor fit]

O=C(Nc1ccc(Cl)cc1)N1CCOC12CCC1(CC2)OCCO1
AC50 [1]: 20 µM [rising, single point]

COCc1ccc(C(=O)N2CCCC(C(=O)c3cc(F)ccc3F)C2)s1 (configuration not stated)
AC50 [1]: 17.8 µM [rising, single point]

O=c1[nH]cc(F)c(=O)[nH]1
AC50 [1]: 29.1 µM [rising, partial curve, poor fit]

Cc1ccc(C(=O)N2CCCC(CCC(=O)NCc3ccccc3F)C2)cn1 (configuration not stated)
AC50 [1]: 5.62 µM [rising, partial curve, poor fit]

Cc1[nH]c2ccccc2c1C(=O)CCl
AC50 [1]: 31.6 µM [rising, single point] | AC50 [2]: 22.4 µM [falling, single point]

O=C(c1cc2nc(-c3ccco3)cc(C(F)(F)F)n2n1)N1CCN(c2ccccn2)CC1
AC50 [1]: 6.51 µM [falling, partial curve, poor fit]

COc1cc(C2C(C#N)=C(N)Oc3cc(N(C)C)ccc32)cc2c1OCO2 (configuration not stated)
AC50 [1]: 2 µM [rising, partial curve, poor fit] | AC50 [2]: 0.562 µM [falling, full curve, poor fit]

Cc1c(Cl)c(C(=O)Nc2nc3ccccc3n2CCN2CCCCC2)nn1C
AC50 [1]: 11.6 µM [falling, partial curve]

NC(=O)c1cc2ccncc2c2ccccc12
AC50 [1]: 11.2 µM [falling, partial curve, poor fit]

CCCCC[C@H](O)/C=C/[C@@H]1[C@@H](C/C=C\CCCC(=O)O)[C@H]2CO[C@@H]1C2
AC50 [2]: 10.3 µM [falling, partial curve]

COC(=O)c1cc(=O)n2c(sc3ccccc32)c1C#N
AC50 [1]: 4.47 µM [falling, full curve]

O=C(COC(=O)c1oc2ccccc2c1CSc1ccc(Cl)cc1)NC1CCCC1
AC50 [1]: 20.6 µM [rising, single point]

Nc1ccc2nc(-c3cc(Cl)c(N)c(Cl)c3)[nH]c2c1
AC50 [1]: 5.17 µM [falling, partial curve]

O=C(NCc1nnc(SCC(=O)N2CCN(c3ccccc3)CC2)o1)c1ccccc1
AC50 [1]: 11.2 µM [rising, partial curve, poor fit]

Brc1ccc(-c2csc(Nc3nc(-c4ccc(Br)cc4)cs3)n2)cc1
AC50 [1]: 1.26 µM [rising, full curve, poor fit]

CC(=O)c1ccc(C(=O)N2CCCC(CCC(=O)N(C)CCc3ccccn3)C2)s1 (configuration not stated)
AC50 [1]: 35.5 µM [rising, single point]

Cc1ccc(-c2nc3cc(N)ccc3o2)cc1Br
AC50 [1]: 4.47 µM [rising, partial curve, poor fit]

COCCn1nnnc1C(c1cc2ccc(C)cc2[nH]c1=O)N(Cc1ccco1)Cc1cccs1 (configuration not stated)
AC50 [1]: 28.2 µM [falling, single point]

O=C1c2ccccc2NC(c2cccc([N+](=O)[O-])c2)N1CCc1ccccc1 (configuration not stated)
AC50 [1]: 3.16 µM [rising, partial curve, poor fit]

COc1ccc(N2CCN(c3cc(C)c4ccc(C)cc4n3)CC2)cc1
AC50 [1]: 0.631 µM [rising, full curve, poor fit]

BrCCOCCOc1ccc2ccccc2c1
AC50 [1]: 11.6 µM [rising, partial curve]

CCn1ncc(Br)c1C(=O)Nc1ncc(C)s1
AC50 [1]: 7.08 µM [falling, partial curve]

CCOC(=O)c1c(C)nc2sc(C(N)=O)c(N)c2c1-c1ccccc1
AC50 [1]: 6.51 µM [rising, single point]

O=C(NCc1ccccc1)c1cc[n+](CC(=O)c2cccs2)cc1
AC50 [1]: 0.794 µM [rising, full curve, poor fit]

CCOC(=O)c1ccccc1NS(=O)(=O)c1ccc(C)cc1
AC50 [1]: 13 µM [rising, partial curve, poor fit]

Cc1ccc(N(CC(=O)NC2CCCCC2)C(=O)CCC(=O)Nc2nccs2)cc1
AC50 [1]: 35.5 µM [falling, single point]

Cc1c(NC(=O)c2cccc(NC(=O)COc3ccccc3C#N)c2)c(=O)n(-c2ccccc2)n1C
AC50 [1]: 29.1 µM [falling, single point]

O=C(N/N=C/c1cccc(Cl)c1)C1CCCC1
AC50 [1]: 15.8 µM [falling, single point]

COc1ccccc1CNC(=O)C1CCC(CNC(=O)[C@@H]2Cc3ccccc3CN2)CC1 (some centres not stated)
AC50 [1]: 11.2 µM [falling, partial curve, poor fit]

C=CCn1ccc(=NC=C(C#N)C#N)c2ccccc21
AC50 [1]: 6.31 µM [falling, single point]

O=C(CSc1nc2ccccc2c(=O)[nH]1)Nc1ccc(S(=O)(=O)N2CCCC2)cc1
AC50 [1]: 20 µM [falling, partial curve, poor fit]

COc1ccc(/C=C/C(=O)NC2CCCCC2C)cc1 (configuration not stated)
AC50 [1]: 6.31 µM [falling, partial curve, poor fit]

Oc1ccc2ccccc2c1/C=N/Nc1nnc(-c2ncc[nH]2)c2ccccc12
AC50 [1]: 0.0291 µM [falling, full curve, poor fit]

O=C(CSc1ccc(-c2ccncc2)nn1)c1ccccc1
AC50 [1]: 35.5 µM [falling, partial curve, poor fit]

C=CCn1cnc2c(sc3nc(C)cc(C)c32)c1=O
AC50 [1]: 20 µM [rising, single point]

CCc1ccccc1NC(=O)c1ccc(NCCc2ccccc2)c([N+](=O)[O-])c1
AC50 [1]: 2.59 µM [falling, full curve, poor fit]

CCCC[n+]1ccn(-c2nc3ccccc3nc2[N-]S(=O)(=O)c2cccs2)c1
AC50 [1]: 2.51 µM [falling, full curve, poor fit]

Cc1ccccc1-n1c(SCC(N)=O)nc2sc(-c3ccccc3)cc2c1=O
AC50 [1]: 7.31 µM [falling, partial curve, poor fit]

Cc1ccc2nc(-c3ccccc3N)[nH]c2c1
AC50 [1]: 14.1 µM [falling, single point]

CCc1ccc(C(=O)Nn2cnc3ccccc3c2=O)cc1
AC50 [1]: 14.1 µM [falling, single point]

N#Cc1c(NC(=O)Cn2c(=O)oc3ccccc32)oc(-c2ccccc2)c1-c1ccccc1
AC50 [1]: 29.1 µM [falling, single point]

O=c1oc2ccccc2cc1-c1cn2cccnc2n1
AC50 [1]: 1.84 µM [falling, full curve]

Fc1ccc(-c2ccc(/C=N/n3cnnc3)o2)cc1
AC50 [1]: 20 µM [rising, single point]

Cc1c(F)cccc1NC(=O)CCCCCC1NC(=O)NC1C (configuration not stated)
AC50 [1]: 6.31 µM [falling, partial curve, poor fit]

Cc1nnsc1-c1nnc(SCC(=O)c2ccc(C#N)cc2)n1C1CC1
AC50 [1]: 8.91 µM [falling, partial curve]

CC(=O)Nc1ccc(C(=O)CSc2nnc3scc(-c4ccccc4)n23)cc1
AC50 [1]: 3.98 µM [rising, partial curve, poor fit]

CCC(CO)Oc1cc(NC(=O)c2ccc(Cl)cc2)c2ncn(C(C)C)c2c1 (configuration not stated)
AC50 [1]: 2.91 µM [rising, single point]

COc1ccc(C(=O)Nc2ccc(O)cc2C(=O)O)cc1
AC50 [1]: 1.58 µM [falling, full curve]
